Experimental data taken from PubChem BioAssay AID2685 (National Center for Advancing Translational Sciences (NCATS), 2010).
Some of the results follow. Further columns of the screen follow, without active or inactive calls. The list favours compounds with an active or inconclusive main result. The note in brackets gives the kind of curve behind each potency; many fits are weak.

Experiment: qHTS Assay for Lipid Storage Modulators in Drosophila S3 Cells;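 for cell number change: cells counted by Cell Tracker Red CMTPX staining in the red channel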
Conditions: BODIPY lipid droplet fluorescence, 18-24 h; for cell number change: measured here: cell count max response, cells fed with added oleic acid
Excerpt: NIH Molecular Libraries Probe Production Centers Network [MLPCN] NIH Chemical Genomics Center [NCGC] MLPCN Grant: 1 R03 MH085686-01 Assay Submitter (PI): Beller, Mathias; Max-Planck-Institut fur Biophysikalische Chemie NCGC Assay Overview: Storing lipids as a reservoir for energy or the anabolism of elementary metabolites is a common feature of probably all cells and is conserved from bacteria to humans. The universal cellular lipid storage organelle is the so-called lipid storage droplet (LD). Although ubiquitous, LDs share a simple structure composed of a hydrophobic core that harbors the storage lipids, which is shielded by a droplet-specific phospholipid monolayer to which proteins are attached. The current model of LD biogenesis involves an incorporation of the lipid core into the membrane leaflets of the endoplasmic reticulum (ER) followed by a subsequent budding-like maturation of a LD, which ultimately pinches off. Once released, LD volume can increase by localized lipogenesis or fusion of existing droplet. Storage lipids are re-mobilized enzymatically by lipase activity. Lipase regulation in the adipocyte is heavily studied and involves multiple components including catecholamine signaling, the LD-associated proteins Perilipin and comparative gene identification (CGI-58) and at least two lipases named hormone sensitive lipase (HSL) and adipocyte triglyceride lipase (ATGL). LD regulation outside of the adipocyte is poorly understood and only few components are known. However, there is an urgent need to learn more about ectopic fat depots as mislocalized storage of lipids, for example in the liver or muscle, is an eminent health problem associated with insulin resistance or the metabolic syndrome. We developed a laser-scanning cytometer assay to enable 1,536-well screening and combined the results of the small molecules screen with an RNAi database based on lipid storage.
Triacsin C (Sigma-Aldrich T-4540), an inhibitor of long-chain fatty acyl CoA synthetase that blocks synthesis of triglycerides, was used as a positive control for lipid under-storage. A total of 23 nL of compound solution of different concentrations were transferred to the assay plates using a Kalypsys pin tool equipped with a 1,536-pin array containing 10-nL slotted pins (FP1S10, 0.457-mm diameter, 50.8 mm long; V&P Scientific). One microliter of oleic acid (400 uM) was added, and the plate was lidded with stainless steel rubber gasket lined lids containing pinholes. […] Fluorescence was detected by excitation of the fluorophores with a 488-nm laser on an Acumen Explorer (TTP Lab Tech). The total intensity in channel 2 (500-530 nm) reflected lipid droplet accumulation. Cells were detected using channel 3 (575-640 nm) with 5-um width and 100-um depth filters. The ratio of the number of objects in PMT channel 2 over the number of objects in PMT channel 3 was also calculated. Percent activity was computed relative to an internal control (100% inhibited lipid droplet deposition due to the presence of 20 uM Triacsin C), which was added to 32 wells/plate.

[1] = measured here: cell number channel AC50, cells fed with added oleic acid
[2] = measured here: lipid fluorescence (Fed channel) AC50, cells fed with added oleic acid

Structure (SMILES)	AC50 [1]	cell number change [%]	AC50 [2]
CCOC(=O)C1CCN(C(=O)/C=C/c2ccccc2)CC1	0.00517 µM [falling, full curve, poor fit]	–	–
COc1ccc(C)cc1S(=O)(=O)Nc1cccc(SC)c1	–	-18.6	–
N#CC(C#N)=C1C=C2C=C(N3CCOCC3)CCC2CC1 (stereo unspecified)	9.2 µM [falling, partial curve]	-96.8	1.03 µM [falling, full curve]
O=C(COC(=O)/C=C/c1cccc(Br)c1)NC1CCCCCC1	0.411 µM [falling, full curve, poor fit]	-31.1	0.058 µM [falling, full curve]
CCC(C)NC(=O)c1ccccc1NC(=O)CN(c1ccc(OC)cc1)S(C)(=O)=O (stereo unspecified)	0.731 µM [falling, single point]	9.68	29.1 µM [rising, single point]
COc1cc(C(=O)N2CCN(C/C=C/c3ccccc3)CC2)cc(OC)c1C	–	6.76	2.91 µM [rising, partial curve]
COc1cccc2cc(C(=O)Nc3ccccc3C(=O)N3CCOCC3)oc12	–	12.7	16.4 µM [falling, single point]
O=C(CCN1C(=O)/C(=C/c2cccs2)SC1=S)Nc1ccccn1	–	0.588	3.66 µM [falling, single point]
O=C1c2ccccc2C(Nc2ccc(S(=O)(=O)N3CCOCC3)cc2)N1c1ccccn1 (stereo unspecified)	–	-0.506	16.4 µM [rising, partial curve, poor fit]
CCCOc1ccc2c(c1)C(=NN=C(N)N)c1cc(OCCC)ccc1-2	11.6 µM [falling, partial curve]	-72	11.6 µM [falling, partial curve]
CC[C@H]1CN2CCc3cc(OC)c(OC)cc3C2C[C@@H]1C[C@H]1NCCc2cc(OC)c(OC)cc21 (stereo partly specified)	32.6 µM [falling, single point]	-30	18.4 µM [falling, partial curve, poor fit]
Cn1nc(C(=O)Nc2sccc2C(N)=O)ccc1=O	–	1.57	–
O=C(Cc1ccccc1)NC(=S)Nc1cccc(C(F)(F)F)c1	25.9 µM [falling, single point]	-66.9	–
Cc1nn(Cc2ccc(Cl)cc2Cl)c(C)c1NC(=O)Cn1nc([N+](=O)[O-])c(Cl)c1C	–	6.3	0.0517 µM [rising, full curve, poor fit]
CC(C)Oc1ccc(C(=O)CCN2CCCCC2)cc1	14.6 µM [falling, single point]	-54	16.4 µM [falling, single point]
O=C(/C=C/NNC(=O)c1cccc(Br)c1)c1ccccc1	–	6.72	5.17 µM [rising, full curve]
Nc1cc(C(F)(F)F)ccc1N1CCOCC1	4.11 µM [rising, single point]	22.1	3.26 µM [rising, single point]
Nc1ccc(C(=O)c2ccccc2C(=O)O)cc1Cl	–	-7.85	0.146 µM [falling, single point]
Cc1ccc(CNC(=O)COC(=O)c2nc(-c3ccccc3)oc2C)cc1	29.1 µM [falling, single point]	-47.1	29.1 µM [falling, single point]
CCOC(=O)c1c(C)oc2c(CC(=O)c3ccccc3)c(Cl)c(O)c(O)c12	–	-15.5	0.206 µM [falling, full curve, poor fit]

Structure (SMILES)	AC50 [1]	cell number change [%]	AC50 [2]
COc1ccccc1NC(=O)CSc1nnc(CC(=O)Nc2ccccc2)n1C	–	20.1	1.16 µM [rising, full curve, poor fit]
Cc1cc(C(=O)N2CCN(c3ccc([N+](=O)[O-])cc3)CC2)no1	–	9.61	29.1 µM [rising, single point]
COC(=O)[C@H](CC(C)C)NC(=O)NCCCc1ccccc1	–	0.544	0.00461 µM [falling, full curve, poor fit]
CN(CC(=O)N1CCCCC1)S(=O)(=O)c1ccc(Cl)cc1	–	4.33	–
CCc1nn(-c2cc(Cl)ccc2OC)c2c1C(=O)CCC2	–	-0.533	4.11 µM [falling, single point]
Cc1cnc(NC(=O)c2ccc3c(c2)C(=O)N(Cc2ccco2)C3=O)s1	–	-23.2	–
COc1cccc(C(=O)Oc2ccc(/C=N/NC(=O)c3ccncc3)cc2OC)c1	–	-3.85	4.11 µM [falling, partial curve, poor fit]
COC(=O)C1=C(C)N(C)C(=O)NC1c1ccc([N+](=O)[O-])o1 (stereo unspecified)	29.1 µM [rising, single point]	41.1	29.1 µM [rising, single point]
Cc1cc(C)c(C(=O)NC2CC(C)(C)Cc3c2cnn3-c2ccccc2)o1 (stereo unspecified)	–	8.96	–
O=C(CCC1COc2ccccc2O1)Nc1cccnc1 (stereo unspecified)	3.26 µM [rising, partial curve]	50.1	–
CCc1nccn1S(=O)(=O)c1cc(OC)c(Cl)cc1OC	0.651 µM [falling, single point]	13.4	0.58 µM [falling, single point]
Cn1nc(-c2ccc(C(=O)N3CCN(Cc4ccccc4)CC3)cc2)c2ccccc2c1=O	–	7.45	0.58 µM [falling, single point]
COC(=O)c1c(NC(C)=O)sc(C(=O)N2CCOCC2)c1C	–	18.1	–
CCn1c(CSc2nc(C)cc(C)n2)nnc1SCC(=O)N1CCCc2ccccc21	–	16.7	–
Cc1ccc(C(C[N+](=O)[O-])c2c(C)cc3ccccn23)cc1 (stereo unspecified)	3.66 µM [rising, single point]	-39.6	16.4 µM [falling, partial curve, poor fit]
N#Cc1cc2cc3c(cc2nc1N1CCCCC1)OCCO3	–	-25.9	0.0259 µM [rising, full curve]
CN(C)C=Nc1c(C(=O)c2ccccc2)sc2nccc(N(C)C)c12	–	-12.8	29.1 µM [rising, single point]
O=C(CSc1nnnn1-c1cccc(F)c1)Nc1nc2ccccc2s1	29.1 µM [falling, single point]	-42.2	29.1 µM [falling, single point]
O=C(OCC(=O)N1CCN(C(=O)c2ccco2)CC1)c1ccccc1C(=O)c1ccc(Cl)cc1	–	12.3	29.1 µM [rising, single point]
COc1ccccc1/C=C/C=C1\Oc2c(ccc(O)c2CN(C)C)C1=O	–	4.59	–

Sorted by count of non-hydrogen atoms (high to low): some entries from above
Structure (SMILES)	AC50 [1]	cell number change [%]	AC50 [2]
CC[C@H]1CN2CCc3cc(OC)c(OC)cc3C2C[C@@H]1C[C@H]1NCCc2cc(OC)c(OC)cc21 (stereo partly specified)	32.6 µM [falling, single point]	-30	18.4 µM [falling, partial curve, poor fit]
O=C(OCC(=O)N1CCN(C(=O)c2ccco2)CC1)c1ccccc1C(=O)c1ccc(Cl)cc1	–	12.3	29.1 µM [rising, single point]
COc1cccc(C(=O)Oc2ccc(/C=N/NC(=O)c3ccncc3)cc2OC)c1	–	-3.85	4.11 µM [falling, partial curve, poor fit]
Cc1cc(C)c(C(=O)NC2CC(C)(C)Cc3c2cnn3-c2ccccc2)o1 (stereo unspecified)	–	8.96	–
COc1ccccc1/C=C/C=C1\Oc2c(ccc(O)c2CN(C)C)C1=O	–	4.59	–
O=C(CCN1C(=O)/C(=C/c2cccs2)SC1=S)Nc1ccccn1	–	0.588	3.66 µM [falling, single point]
O=C(Cc1ccccc1)NC(=S)Nc1cccc(C(F)(F)F)c1	25.9 µM [falling, single point]	-66.9	–
COC(=O)[C@H](CC(C)C)NC(=O)NCCCc1ccccc1	–	0.544	0.00461 µM [falling, full curve, poor fit]
CCOC(=O)C1CCN(C(=O)/C=C/c2ccccc2)CC1	0.00517 µM [falling, full curve, poor fit]	–	–
Nc1ccc(C(=O)c2ccccc2C(=O)O)cc1Cl	–	-7.85	0.146 µM [falling, single point]

Remaining list, next part

Structure (SMILES)	AC50 [1]	cell number change [%]	AC50 [2]
CCCOC1CCCN(C(=O)c2cc(Cl)c(Cl)cc2C(=O)O)C1 (stereo unspecified)	–	-3.2	–
CC(OC(=O)C1CCCC1)C(=O)Nc1ncc(Cl)cc1Cl (stereo unspecified)	–	-6.1	0.00461 µM [falling, full curve, poor fit]
Cc1nc(=S)c2c([nH]1)-c1ccccc1CC21CCCCC1	5.8 µM [rising, full curve, poor fit]	35	0.116 µM [rising, full curve]
O=C(COc1ccc(Br)cc1CNC1CCCCC1)NCCc1ccccc1	–	23.4	–
Cn1c(=O)n(C)c2cc(S(=O)(=O)O)ccc21	–	0.149	3.26 µM [rising, single point]
O=C(CSc1nc(-c2ccco2)cc(C(F)(F)F)n1)N1CCN(c2ccc(Cl)cc2)CC1	–	-27.3	29.1 µM [falling, single point]
COCC(=O)Nc1cc(C(=O)OC)cc(C(=O)OC)c1	–	23.6	13 µM [rising, partial curve, poor fit]
CSCc1ccc(C(=O)NC2CC(C)(C)Cc3c2cnn3-c2ccc(F)cc2)o1 (stereo unspecified)	–	–	0.651 µM [falling, partial curve, poor fit]
CCOC(=O)c1sc(C)c(C(=O)NCCCN2CCOCC2)c1N	5.17 µM [falling, single point]	-19.9	1.03 µM [falling, full curve]
COC(=O)CCn1nnc(-c2cccs2)n1	–	-17.8	3.26 µM [falling, full curve, poor fit]
CCOCCCNC(=O)c1cc2c(=O)n3cccc(C)c3nc2n1C	–	–	0.164 µM [rising, full curve, poor fit]
Cc1nn(-c2ccccc2)c(C)c1N	29.1 µM [rising, single point]	59.9	0.58 µM [rising, single point]
O=C(CSC1CC(=O)N(CCc2ccccc2)C1=O)Nc1ccc(Br)cc1 (stereo unspecified)	–	-39.2	0.206 µM [falling, full curve, poor fit]
Cc1ccc(NC(=O)NCc2ccc3c(c2)OCO3)cc1	0.651 µM [rising, full curve, poor fit]	33.9	8.2 µM [rising, partial curve]
COCCNC(=O)CCCCCN1C(=O)CCC1=O	29.1 µM [falling, single point]	-90	29.1 µM [falling, single point]
OCCC1CN(C/C=C/c2ccco2)CCN1Cc1ccccc1 (stereo unspecified)	–	14.2	29.1 µM [falling, single point]
O=C(C[n+]1cc(Br)cc2ccccc21)c1ccccc1	0.259 µM [falling, full curve, poor fit]	-20.9	–
COC(=O)C(Cc1ccccc1)NC(=O)CCNC(=O)c1ccco1 (stereo unspecified)	–	-1.35	–
O=C(/C=C/c1ccc(F)cc1)c1ccc(N2CCOCC2)cc1	–	0.661	2.06 µM [rising, full curve, poor fit]
